In US10126304B2, “Binding domain mapping” (George Mason Research Foundation, Inc., priority 2013, dated 2018):
These are yes or no findings as the source states them, for the method shown. In cells and extracts the contact can be indirect. Some entries that bind do so weakly or less than the wild type.

Amino acid sequences for entries named in this document (tags omitted). A change or cut given only in a name is not applied to a line headed by its entry. Residues count along the entry.
UniProt P01584: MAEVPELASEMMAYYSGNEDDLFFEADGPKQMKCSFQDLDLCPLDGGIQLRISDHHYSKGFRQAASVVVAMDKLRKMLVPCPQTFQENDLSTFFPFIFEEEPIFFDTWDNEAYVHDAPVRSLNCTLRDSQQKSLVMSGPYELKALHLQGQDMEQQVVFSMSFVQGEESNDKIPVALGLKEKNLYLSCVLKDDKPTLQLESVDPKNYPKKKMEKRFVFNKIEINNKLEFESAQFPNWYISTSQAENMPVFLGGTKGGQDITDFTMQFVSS
UniProt Q9NPH3, residues 21-359: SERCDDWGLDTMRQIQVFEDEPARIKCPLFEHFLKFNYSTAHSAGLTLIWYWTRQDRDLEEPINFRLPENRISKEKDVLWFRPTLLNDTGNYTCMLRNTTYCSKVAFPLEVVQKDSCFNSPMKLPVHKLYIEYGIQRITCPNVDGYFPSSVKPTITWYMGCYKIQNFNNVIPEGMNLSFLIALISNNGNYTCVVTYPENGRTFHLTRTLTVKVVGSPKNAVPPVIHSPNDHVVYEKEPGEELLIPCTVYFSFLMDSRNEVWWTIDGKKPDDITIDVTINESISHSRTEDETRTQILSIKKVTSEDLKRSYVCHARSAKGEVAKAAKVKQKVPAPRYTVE

Experiments:
[1] = target: IL1β-IL1RI complex (Homo sapiens (Human)) (UniProt P01584); assay: pull-down with anti-6×His magnetic beads, western blot for IL1β (FIG. 16e)
[2] = target: IL1β-IL1RI complex (Homo sapiens (Human)) (UniProt P01584); assay: protein painting, LC-MS/MS (FIG. 16b)
[3] = target: IL1β-IL1RI complex (Homo sapiens (Human)) (UniProt P01584); assay: protein painting of the ternary complex, LC-MS/MS

binding [1] | binding [2] | binding [3] | Substance
binds | – | – | 6×His-tagged IL1RAcP (from UniProt Q9NPH3 21-359) (receptor)
– | binds | binds | Interleukin 1 receptor accessory protein (IL1RAcP, Novoprotein) (from UniProt Q9NPH3 21-359)
